Data as given in publication PMC5372463, “Bacterial kinesin light chain (Bklc) links the Btub cytoskeleton to membranes” (Scientific Reports, 2017).
No constants are given. Whether binding was seen depends on the method and setting. For part of these data: In cells and extracts the contact can be indirect. Some entries that bind do so weakly or less than the wild type.

By UniProt entry, the sequences of proteins in these tests, tags left out.
UniProt Q8GCC1: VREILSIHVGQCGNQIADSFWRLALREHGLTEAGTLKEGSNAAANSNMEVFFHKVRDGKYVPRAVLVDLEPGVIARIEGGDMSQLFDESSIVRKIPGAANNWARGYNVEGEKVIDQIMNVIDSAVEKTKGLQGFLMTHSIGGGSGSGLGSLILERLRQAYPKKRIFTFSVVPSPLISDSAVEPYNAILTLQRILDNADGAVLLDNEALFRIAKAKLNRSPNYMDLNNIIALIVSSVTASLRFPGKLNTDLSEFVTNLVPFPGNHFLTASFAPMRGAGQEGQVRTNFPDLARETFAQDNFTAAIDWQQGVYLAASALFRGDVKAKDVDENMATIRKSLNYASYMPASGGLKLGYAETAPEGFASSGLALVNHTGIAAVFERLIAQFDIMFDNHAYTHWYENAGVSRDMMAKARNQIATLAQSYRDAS

B1: BtubA from Prosthecobacter dejongeii (protein, UniProt Q8GCC5 1-473)
chain: MKVNNTIVVSIGQAGNQIAASFWKTVCLEHGIDPLTGQTAPGVAPRGNWSSFFSKLGESSSGSYVPRAIMVDLEPSVIDNVKATSGSLFNPANLISRTEGAGGNFAVGYLGAGREVLPEVMSRLDYEIDKCDNVGGIIVLHAIGGGTGSGFGALLIESLKEKYGEIPVLSCAVLPSPQVSSVVTEPYNTVFALNTLRRSADACLIFDNEALFDLAHRKWNIESPTVDDLNLLITEALAGITASMRFSGFLTVEITLRELLTNLVPQPSLHFLMCAFAPLTPPDRSKFEELGIEEMIKSLFDNGSVFAACSPMEGRFLSTAVLYRGIMEDKPLADAALAAMREKLPLTYWIPTAFKIGYVEQPGISHRKSMVLLANNTEIARVLDRICHNFDKLWQRKAFANWYLNEGMSEEQINVLRASAQELVQSYQVAEESGAKAKVQDSAGDTGMRAAAAGVSDDARGSMSLRDLVDRRR

Tests used:
[1] = target: T1, BtubA/B heterodimer (bacterial tubulin) from Prosthecobacter dejongeii (Prosthecobacter dejongeii) (UniProt Q8GCC5+Q8GCC1); test: cryo-electron tomography; Btub filaments after 2 cycles of polymerization; heterodimers to filaments and bundles of protofilaments; both purified
[2] = target: T1, BtubA/B heterodimer (bacterial tubulin) from Prosthecobacter dejongeii (Prosthecobacter dejongeii); test: sedimentation of polymers; BtubA/B 10 μM in polymerization buffer with 2 mM GTP, 10 min 25 °C, 100.000 x g 30 min; heterodimers to filaments; both purified
[3] = target: BtubB from Prosthecobacter dejongeii (Prosthecobacter dejongeii) (UniProt Q8GCC1); test: co-sedimentation + SEC; BtubA and BtubB co-expressed untagged in E. coli, purified together by a cycle of polymerization/depolymerization from the cleared lysate, then Superdex 200 in 20 mM Tris-HCl, 1 mM EDTA pH 7.5, 4 °C

Molecule | binding [1] | binding [2] | binding [3]
BtubA/B heterodimer (bacterial tubulin) from Prosthecobacter dejongeii (from UniProt Q8GCC5 1-473; Q8GCC1 1-426) (complex) | binds | binds | –
B1 | – | – | binds
